Test results as given in PMC7862700.
The list shows a part of the results. Construct or isoform of the protein are uncertain.

biological target: T1, ELF2 (UniProt Q15723); experiment: DAPPL (digital affinity profiling via proximity ligation, sequencing); conditions: 10 mM Tris-HCl pH 7.5, 50 mM NaCl, 1 mM DTT, 4% glycerol, room temperature, 30 min; GST-TFs on glutathione beads, 16-mer random dsDNA library, 0.1% …; high values mean tight binding; double strand, one strand shown; scale: fold enrichment (6-mer frequency, TF over GST control)
T1 sequence: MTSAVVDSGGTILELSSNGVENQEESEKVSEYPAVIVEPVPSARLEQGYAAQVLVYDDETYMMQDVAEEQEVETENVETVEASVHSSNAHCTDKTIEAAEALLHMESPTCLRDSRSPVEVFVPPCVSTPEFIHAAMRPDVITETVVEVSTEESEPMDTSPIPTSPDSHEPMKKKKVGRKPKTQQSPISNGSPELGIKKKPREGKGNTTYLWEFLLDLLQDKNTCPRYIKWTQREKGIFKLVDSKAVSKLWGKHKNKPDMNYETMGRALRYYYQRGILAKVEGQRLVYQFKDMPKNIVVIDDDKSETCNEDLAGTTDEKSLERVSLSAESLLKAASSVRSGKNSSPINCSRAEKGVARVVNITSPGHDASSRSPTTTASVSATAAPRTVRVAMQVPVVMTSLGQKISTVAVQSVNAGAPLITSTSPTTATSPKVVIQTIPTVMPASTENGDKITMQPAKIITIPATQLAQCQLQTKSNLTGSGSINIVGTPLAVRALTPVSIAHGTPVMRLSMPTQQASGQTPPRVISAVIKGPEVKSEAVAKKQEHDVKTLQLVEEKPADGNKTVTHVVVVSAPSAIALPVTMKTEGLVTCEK

Sequence	binding signal
ATCATA	1.05
TATCCT	1.97
ATGGTT	1.28
ATAGCA	1.08
CGATTG	1.11
TTCAAA	1.23
TGCTTC	2.57
TTTCGA	1.36
TCGATT	1.06
CTATGA	1.04
TTATCA	1.08
ACTCTT	1.22
GATTCT	1.21
ATACTG	1.11
GATGGT	1.13
GCGTTC	1.17
GCTCCT	1.34
CCTCTA	1.3
CCCCCA	1.15
TTAAAC	1.2

Sequence	binding signal
CTAAGC	1.02
GCTATT	1.3
AGATTC	1.17
CCGACC	1.48
CCTTTC	1.61
GAACCC	1.24
GAAGTT	2.12
GCTTAG	1.04
CTTTCA	1.29
CAGCTT	1.26
CCATAA	1.09
ACTGCG	1.26
CCGTAC	1.37
TTAATG	1.15
TTCGTA	1.34
CCACGC	1.13
CGAAAC	1.2
GTGCTC	1.13
CTGAGC	1.11

Random excerpt: 3 records from the list
Sequence	binding signal
CAGCTT	1.26
CCATAA	1.09
CCTTTC	1.61
